According to patent US20240010697A1:
Results are given in words; binding and its absence hold for the method and conditions named. Some entries that bind do so weakly or less than the wild type.

The chains behind the UniProt entries cited, without tags or fusion partners. Where a name states a change or a piece, a line headed by the entry shows the natural chain unless it says otherwise.
UniProt P60568: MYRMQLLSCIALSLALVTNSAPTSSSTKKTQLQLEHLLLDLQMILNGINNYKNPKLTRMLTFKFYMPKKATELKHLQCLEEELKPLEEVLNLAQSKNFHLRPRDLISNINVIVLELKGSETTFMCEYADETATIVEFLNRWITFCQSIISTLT

Experiments:
[1] = molecular target: T1, IL-2Rαβγ on CTLL2 cells (UniProt P01590); test: flow cytometry on cells, anti-His-APC
T1 sequence (looked up) 1: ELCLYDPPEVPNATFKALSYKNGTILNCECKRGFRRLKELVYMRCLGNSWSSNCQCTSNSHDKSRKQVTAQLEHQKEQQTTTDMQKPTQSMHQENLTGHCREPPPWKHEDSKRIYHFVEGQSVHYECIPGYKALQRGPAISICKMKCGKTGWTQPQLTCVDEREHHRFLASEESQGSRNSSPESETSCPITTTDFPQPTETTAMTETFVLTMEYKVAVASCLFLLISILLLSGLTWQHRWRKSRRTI
T1 sequence (looked up) 2: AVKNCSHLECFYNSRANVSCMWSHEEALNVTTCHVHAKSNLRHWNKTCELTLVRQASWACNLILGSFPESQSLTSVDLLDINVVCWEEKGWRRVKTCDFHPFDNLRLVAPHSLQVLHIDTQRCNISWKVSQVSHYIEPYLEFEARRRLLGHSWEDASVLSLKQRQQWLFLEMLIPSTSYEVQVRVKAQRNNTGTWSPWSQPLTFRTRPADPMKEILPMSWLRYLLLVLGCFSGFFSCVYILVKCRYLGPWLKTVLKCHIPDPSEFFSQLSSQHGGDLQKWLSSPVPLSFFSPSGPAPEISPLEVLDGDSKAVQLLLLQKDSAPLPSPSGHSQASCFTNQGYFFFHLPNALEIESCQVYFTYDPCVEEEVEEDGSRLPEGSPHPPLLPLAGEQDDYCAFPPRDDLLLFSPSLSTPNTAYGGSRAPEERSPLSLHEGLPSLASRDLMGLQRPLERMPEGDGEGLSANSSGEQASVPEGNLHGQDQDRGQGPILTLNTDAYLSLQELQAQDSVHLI
T1 sequence (looked up) 3: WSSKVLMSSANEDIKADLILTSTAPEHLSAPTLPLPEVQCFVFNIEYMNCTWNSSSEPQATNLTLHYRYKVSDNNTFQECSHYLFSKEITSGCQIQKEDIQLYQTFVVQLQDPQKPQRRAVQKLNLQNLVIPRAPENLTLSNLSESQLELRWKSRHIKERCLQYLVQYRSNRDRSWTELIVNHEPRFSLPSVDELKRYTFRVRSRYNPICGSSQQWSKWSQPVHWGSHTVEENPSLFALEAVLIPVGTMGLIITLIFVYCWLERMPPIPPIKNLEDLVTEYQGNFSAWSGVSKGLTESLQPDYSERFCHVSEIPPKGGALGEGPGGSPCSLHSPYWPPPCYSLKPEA

[2] = molecular target: T1, IL-2Rαβγ on CTLL2 cells; test: flow cytometry on CTLL-2 cells, His-tagged protein at 1.0 and 0.1 ug/ml, anti-His-APC; y axis without label

Row | binding [1] | binding [2] | Substance
1 | binds | binds | ACT5200, IL-2 mutein Y31C (from UniProt P60568 21-153) (ligand)
2 | binds | – | ACT5201, IL-2 mutein Y31C (PEG20K) (from UniProt P60568 21-153) (ligand)
3 | – | binds | ACT5211, IL-2 mutein Y31C + L18M + L19S (PEG20K) (from UniProt P60568 21-153) (ligand)
4 | – | binds | recombinant human IL-2 with C125S substitution (rhIL-2) (from UniProt P60568 21-153) (ligand)
